The target of this test is XPO1 (human), O14980. The test can be described thus: proximity labelling; BioID, large-scale, direct identification of biotinylated peptides: same NTR-BirA* lines; biotinylated peptides eluted from streptavidin beads with 80% ACN, 20% TFA after the on-bead digest, MS. To be noted: remark: other sources report otherwise.

No constants are given. Whether binding was seen depends on the method and setting. In cells and extracts the contact can be indirect. These calls come from enrichment with a bait or labelling near it, and not all partners need be listed.

B1: NUP153, P49790 1-1475 (protein)
chain: MASGAGGVGGGGGGKIRTRRCHQGPIKPYQQGRQQHQGILSRVTESVKNIVPGWLQRYFNKNEDVCSCSTDTSEVPRWPENKEDHLVYADEESSNITDGRITPEPAVSNTEEPSTTSTASNYPDVLTRPSLHRSHLNFSMLESPALHCQPSTSSAFPIGSSGFSLVKEIKDSTSQHDDDNISTTSGFSSRASDKDITVSKNTSLPPLWSPEAERSHSLSQHTATSSKKPAFNLSAFGTLSPSLGNSSILKTSQLGDSPFYPGKTTYGGAAAAVRQSKLRNTPYQAPVRRQMKAKQLSAQSYGVTSSTARRILQSLEKMSSPLADAKRIPSIVSSPLNSPLDRSGIDITDFQAKREKVDSQYPPVQRLMTPKPVSIATNRSVYFKPSLTPSGEFRKTNQRIDNKCSTGYEKNMTPGQNREQRESGFSYPNFSLPAANGLSSGVGGGGGKMRRERTRFVASKPLEEEEMEVPVLPKISLPITSSSLPTFNFSSPEITTSSPSPINSSQALTNKVQMTSPSSTGSPMFKFSSPIVKSTEANVLPPSSIGFTFSVPVAKTAELSGSSSTLEPIISSSAHHVTTVNSTNCKKTPPEDCEGPFRPAEILKEGSVLDILKSPGFASPKIDSVAAQPTATSPVVYTRPAISSFSSSGIGFGESLKAGSSWQCDTCLLQNKVTDNKCIACQAAKLSPRDTAKQTGIETPNKSGKTTLSASGTGFGDKFKPVIGTWDCDTCLVQNKPEAIKCVACETPKPGTCVKRALTLTVVSESAETMTASSSSCTVTTGTLGFGDKFKRPIGSWECSVCCVSNNAEDNKCVSCMSEKPGSSVPASSSSTVPVSLPSGGSLGLEKFKKPEGSWDCELCLVQNKADSTKCLACESAKPGTKSGFKGFDTSSSSSNSAASSSFKFGVSSSSSGPSQTLTSTGNFKFGDQGGFKIGVSSDSGSINPMSEGFKFSKPIGDFKFGVSSESKPEEVKKDSKNDNFKFGLSSGLSNPVSLTPFQFGVSNLGQEEKKEELPKSSSAGFSFGTGVINSTPAPANTIVTSENKSSFNLGTIETKSASVAPFTCKTSEAKKEEMPATKGGFSFGNVEPASLPSASVFVLGRTEEKQQEPVTSTSLVFGKKADNEEPKCQPVFSFGNSEQTKDENSSKSTFSFSMTKPSEKESEQPAKATFAFGAQTSTTADQGAAKPVFSFLNNSSSSSSTPATSAGGGIFGSSTSSSNPPVATFVFGQSSNPVSSSAFGNTAESSTSQSLLFSQDSKLATTSSTGTAVTPFVFGPGASSNNTTTSGFGFGATTTSSSAGSSFVFGTGPSAPSASPAFGANQTPTFGQSQGASQPNPPGFGSISSSTALFPTGSQPAPPTFGTVSSSSQPPVFGQQPSQSAFGSGTTPNSSSAFQFGSSTTNFNFTNNSPSGVFTFGANSSTPAASAQPSGSGGFPFNQSPAAFTVGSNGKNVFSSSGTSFSGRKIKTAVRRRK
For the molecule B1, the binding entry was “binds”.
